Assay results taken from paper PMC4548209.
Where two headings read alike, the source gives them in different places. These are yes or no findings as the source states them, for the method shown. For some assays here: Binding seen in cells or lysates may run through a third protein. Some entries that bind do so weakly or less than the wild type. For some assays here: Sequences can lack the tags named with a protein.

Sequences of proteins named here, by UniProt entry; tags and fusion partners are left off. A change or cut given only in a name is not applied to a line headed by its entry.
UniProt P42582: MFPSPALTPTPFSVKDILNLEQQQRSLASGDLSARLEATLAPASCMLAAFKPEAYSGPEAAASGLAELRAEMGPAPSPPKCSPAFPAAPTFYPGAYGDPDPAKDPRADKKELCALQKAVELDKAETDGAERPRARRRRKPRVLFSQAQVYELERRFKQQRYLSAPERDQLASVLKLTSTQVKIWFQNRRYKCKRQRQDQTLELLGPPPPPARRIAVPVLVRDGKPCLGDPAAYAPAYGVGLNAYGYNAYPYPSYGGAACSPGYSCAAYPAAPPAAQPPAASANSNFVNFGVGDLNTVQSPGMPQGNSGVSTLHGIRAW
UniProt Q08369: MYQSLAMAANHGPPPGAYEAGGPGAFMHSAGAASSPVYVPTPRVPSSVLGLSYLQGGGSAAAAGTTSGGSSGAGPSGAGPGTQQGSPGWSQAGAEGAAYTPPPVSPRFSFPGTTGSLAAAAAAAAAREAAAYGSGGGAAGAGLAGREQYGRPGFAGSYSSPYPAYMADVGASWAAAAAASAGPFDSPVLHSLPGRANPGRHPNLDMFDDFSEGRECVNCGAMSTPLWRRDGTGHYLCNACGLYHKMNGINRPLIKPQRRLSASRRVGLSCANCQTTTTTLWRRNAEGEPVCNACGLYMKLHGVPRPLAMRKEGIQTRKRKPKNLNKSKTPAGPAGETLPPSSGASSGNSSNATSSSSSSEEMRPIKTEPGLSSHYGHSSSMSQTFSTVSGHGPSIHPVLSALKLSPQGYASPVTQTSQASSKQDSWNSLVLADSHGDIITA

Key:
[1] = target: Full-length NKX2-5 (yeast two-hybrid fusion) (mouse) (UniProt P42582); assay: two-hybrid; pGADT7-AD and pGBKT7-DBD fusions co-transformed into S. cerevisiae AH109; interaction as growth on -Ade/-His/-Leu/-Trp plates; three independent experiments
[2] = target: T1, ETS1 (Rluc-PCA fusion) (mouse) (UniProt P27577); assay: split reporter; Renilla luciferase protein fragment complementation assay (Rluc-PCA) in HEK 293T cells; Rluc8.1 and Rluc8.2 fusions from a truncated CMV promoter; read 24 hr after transfection, normalised to ß-galactosidase
T1 sequence: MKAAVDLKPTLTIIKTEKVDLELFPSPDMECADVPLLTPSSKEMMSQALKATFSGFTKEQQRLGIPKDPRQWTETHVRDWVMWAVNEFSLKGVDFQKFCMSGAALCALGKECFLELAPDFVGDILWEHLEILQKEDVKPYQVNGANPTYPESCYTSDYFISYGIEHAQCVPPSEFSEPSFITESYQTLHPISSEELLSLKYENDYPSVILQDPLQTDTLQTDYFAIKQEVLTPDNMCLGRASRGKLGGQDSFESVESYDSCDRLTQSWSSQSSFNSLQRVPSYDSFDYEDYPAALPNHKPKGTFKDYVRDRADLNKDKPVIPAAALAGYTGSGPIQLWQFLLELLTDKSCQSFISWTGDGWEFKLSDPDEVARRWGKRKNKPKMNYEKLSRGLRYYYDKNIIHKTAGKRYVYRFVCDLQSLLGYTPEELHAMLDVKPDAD

[3] = target: T2, ELK3 (Rluc-PCA fusion) (mouse) (UniProt P41971); assay: as above
T2 sequence: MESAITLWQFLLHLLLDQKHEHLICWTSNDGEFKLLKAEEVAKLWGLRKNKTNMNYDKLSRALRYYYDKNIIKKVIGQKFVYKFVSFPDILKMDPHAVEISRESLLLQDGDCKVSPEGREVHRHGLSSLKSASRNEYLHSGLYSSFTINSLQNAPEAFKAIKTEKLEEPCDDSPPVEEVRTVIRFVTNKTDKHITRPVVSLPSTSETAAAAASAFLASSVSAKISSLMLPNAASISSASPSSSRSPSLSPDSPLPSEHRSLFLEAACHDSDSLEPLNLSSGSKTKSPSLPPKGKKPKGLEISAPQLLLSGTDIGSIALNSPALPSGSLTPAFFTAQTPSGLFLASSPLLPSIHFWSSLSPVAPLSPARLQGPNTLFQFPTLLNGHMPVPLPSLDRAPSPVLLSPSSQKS

[4] = target: T3, ERF (Rluc-PCA fusion) (mouse) (UniProt P70459); assay: as above
T3 sequence: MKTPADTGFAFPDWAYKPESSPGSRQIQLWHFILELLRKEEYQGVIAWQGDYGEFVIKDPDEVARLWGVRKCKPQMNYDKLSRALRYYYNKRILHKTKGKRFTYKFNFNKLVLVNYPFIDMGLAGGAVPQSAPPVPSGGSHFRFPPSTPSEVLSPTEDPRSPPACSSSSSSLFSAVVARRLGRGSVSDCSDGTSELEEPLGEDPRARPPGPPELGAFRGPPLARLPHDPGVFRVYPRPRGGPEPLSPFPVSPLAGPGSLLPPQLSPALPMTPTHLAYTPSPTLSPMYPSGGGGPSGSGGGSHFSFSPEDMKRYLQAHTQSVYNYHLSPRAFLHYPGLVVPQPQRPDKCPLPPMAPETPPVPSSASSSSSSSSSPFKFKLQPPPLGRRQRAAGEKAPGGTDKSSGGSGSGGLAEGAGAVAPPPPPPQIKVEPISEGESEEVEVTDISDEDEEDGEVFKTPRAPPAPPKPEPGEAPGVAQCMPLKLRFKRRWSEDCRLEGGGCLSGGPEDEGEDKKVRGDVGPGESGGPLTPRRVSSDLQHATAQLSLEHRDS

[5] = target: T4, GABPα (Rluc-PCA fusion) (mouse) (UniProt Q00422); assay: as above
T4 sequence: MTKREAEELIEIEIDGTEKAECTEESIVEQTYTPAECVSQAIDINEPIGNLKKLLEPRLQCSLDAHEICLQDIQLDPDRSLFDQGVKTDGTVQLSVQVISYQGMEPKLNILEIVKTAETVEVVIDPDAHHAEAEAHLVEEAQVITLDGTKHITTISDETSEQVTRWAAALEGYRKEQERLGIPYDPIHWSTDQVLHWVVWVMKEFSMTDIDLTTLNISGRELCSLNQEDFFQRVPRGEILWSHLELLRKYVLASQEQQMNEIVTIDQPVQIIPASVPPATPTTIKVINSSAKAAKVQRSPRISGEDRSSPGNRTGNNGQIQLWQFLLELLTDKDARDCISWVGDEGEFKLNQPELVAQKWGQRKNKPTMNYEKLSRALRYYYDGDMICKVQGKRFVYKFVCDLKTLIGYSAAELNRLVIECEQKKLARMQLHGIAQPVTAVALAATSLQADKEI

[6] = target: NKX2-5∆HD (NKX2-5 V142_Q199del) (Cerulean or Venus fusion for psFRET) (mouse) (UniProt P42582); assay: FRET or BRET; processed spectral FRET (psFRET) in live CV-1 cells transfected with Cerulean (donor) and Venus (acceptor) fusions
[7] = target: NKX2-5 WT (Cerulean or Venus fusion for psFRET) (mouse) (UniProt P42582); assay: as above
[8] = target: T5, TBX5 (Rluc-PCA fusion) (mouse) (UniProt P70326); assay: split reporter; Renilla luciferase protein fragment complementation assay (Rluc-PCA) in HEK 293T cells; Rluc8.1 and Rluc8.2 fusions from a truncated CMV promoter; read 24 hr after transfection, normalised to ß-galactosidase
T5 sequence: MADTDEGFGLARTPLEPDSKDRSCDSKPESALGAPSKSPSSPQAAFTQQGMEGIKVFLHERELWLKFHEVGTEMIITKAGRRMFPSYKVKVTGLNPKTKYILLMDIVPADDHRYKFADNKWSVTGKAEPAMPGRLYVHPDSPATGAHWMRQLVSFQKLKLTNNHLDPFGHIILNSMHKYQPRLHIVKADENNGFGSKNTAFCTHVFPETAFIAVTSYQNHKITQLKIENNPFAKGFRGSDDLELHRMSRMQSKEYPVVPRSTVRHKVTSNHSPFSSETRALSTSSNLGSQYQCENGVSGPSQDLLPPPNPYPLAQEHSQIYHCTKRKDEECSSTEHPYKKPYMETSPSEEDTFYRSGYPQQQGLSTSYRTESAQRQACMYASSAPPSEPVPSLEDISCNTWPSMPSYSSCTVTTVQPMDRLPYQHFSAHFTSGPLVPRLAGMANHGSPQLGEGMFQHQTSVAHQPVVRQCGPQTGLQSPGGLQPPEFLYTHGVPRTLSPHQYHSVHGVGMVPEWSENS

[9] = target: GATA4 (Rluc-PCA fusion) (mouse) (UniProt Q08369); assay: as above
[10] = target: T6, TBX20 (Rluc-PCA fusion) (mouse) (UniProt Q9ES03); assay: as above
T6 sequence: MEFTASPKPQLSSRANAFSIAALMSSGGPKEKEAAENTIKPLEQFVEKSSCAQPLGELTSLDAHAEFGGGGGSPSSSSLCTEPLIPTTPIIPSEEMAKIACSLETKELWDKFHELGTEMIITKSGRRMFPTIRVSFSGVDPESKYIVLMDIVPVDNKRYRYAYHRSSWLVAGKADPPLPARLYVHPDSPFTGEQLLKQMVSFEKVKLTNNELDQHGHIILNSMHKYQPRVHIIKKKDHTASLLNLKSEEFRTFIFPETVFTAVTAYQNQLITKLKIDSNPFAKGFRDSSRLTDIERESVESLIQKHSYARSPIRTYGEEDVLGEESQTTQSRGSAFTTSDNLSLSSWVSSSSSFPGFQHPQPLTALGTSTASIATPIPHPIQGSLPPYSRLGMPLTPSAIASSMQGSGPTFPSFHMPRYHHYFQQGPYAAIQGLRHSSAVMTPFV

[11] = target: NKX2-5∆HD (NKX2-5 V142_Q199del) (Rluc-PCA fusion) (mouse) (UniProt P42582); assay: as above
[12] = target: NKX2-5 WT (Rluc-PCA fusion) (mouse) (UniProt P42582); assay: as above
[13] = target: T7, SRF (Rluc-PCA fusion) (mouse) (UniProt Q9JM73); assay: as above
T7 sequence: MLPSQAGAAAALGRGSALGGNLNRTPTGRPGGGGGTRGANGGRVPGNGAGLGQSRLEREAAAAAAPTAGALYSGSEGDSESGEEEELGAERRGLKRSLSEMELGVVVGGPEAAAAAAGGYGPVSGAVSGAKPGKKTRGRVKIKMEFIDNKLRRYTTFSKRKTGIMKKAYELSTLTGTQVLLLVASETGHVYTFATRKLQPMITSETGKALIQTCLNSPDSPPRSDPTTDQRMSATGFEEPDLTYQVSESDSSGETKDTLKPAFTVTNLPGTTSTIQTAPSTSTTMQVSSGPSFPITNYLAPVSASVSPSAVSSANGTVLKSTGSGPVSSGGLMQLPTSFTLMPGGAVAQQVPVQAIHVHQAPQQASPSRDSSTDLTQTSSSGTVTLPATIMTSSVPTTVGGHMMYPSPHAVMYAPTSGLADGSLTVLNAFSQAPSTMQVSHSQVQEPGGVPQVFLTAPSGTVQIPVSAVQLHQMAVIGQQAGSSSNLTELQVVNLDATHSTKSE

[14] = target: T5, TBX5 (Rluc-PCA fusion) (mouse); assay: as above; remark: listed apart in the source
[15] = target: NKX2-5∆HD (NKX2-5 V142_Q199del) (Rluc-PCA fusion) (mouse) (UniProt P42582); assay: as above; remark: listed apart in the source
[16] = target: NKX2-5 WT (Rluc-PCA fusion) (mouse) (UniProt P42582); assay: as above; remark: listed apart in the source

“NKX2-5 HD (aa137-196) (yeast two-hybrid fusion) (from UniProt P42582 137-196) (domain or fragment)” was tested, and the binding [1] was “binds”.

“NKX2-5 N-terminal region (aa1-135) (yeast two-hybrid fusion) (from UniProt P42582 1-135) (domain or fragment)” was tested, and the binding [1] was “no binding”.

With “NKX2-5 WT (Rluc-PCA fusion) (from UniProt P42582 1-318)” the binding [2] was “binds”, the binding [3] was “binds” and the binding [4] was “binds”. For the same molecule, the binding [5] was “binds”.

“NKX2-5∆HD (NKX2-5 V142_Q199del) (Cerulean or Venus fusion for psFRET) (from UniProt P42582 1-141; P42582 200-318)” was tested, and the binding [6] was “binds” and the binding [7] was “binds”.

In the case of “NKX2-5∆HD (NKX2-5 V142_Q199del) (Rluc-PCA fusion) (from UniProt P42582 1-141; P42582 200-318)”, the binding [8] is reported as “binds”, the binding [9] is reported as “binds” and the binding [10] is reported as “binds”. The binding [11] was “binds” and the binding [12] was “binds”.

B1: ELK4 (Rluc-PCA fusion) (protein, UniProt P41158 1-430)
chain: MDSAITLWQFLLQLLQEPQNEHMICWTSNNGEFKLLQAEEVARLWGIRKNKPNMNYDKLSRALRYYYVKNIIKKVNGQKFVYKFVSYPEILKMDPLTVGRIEGDCEALNSIETSSSKDVEYGGKERPPQPGAKTSSRNDYIHSGLYSSFTLNSLNTSNKKLFKSIKIENPAEKLAEKKAQEPTPSVIKFVTTPAKKPPIEPVAAAFATSPSLSPSSEETIQALETLVSPTLPSLETPASISILATTFNPTPPVPSTPLPLKEPPRTPSPPLSSNPDIDTDIESVASQPMELPENLSLEPKNEDSALPEKDKTNNSSRSKKPKGLELTPALVVTGSDPSPLGILSPSLPTASLTPALFSQTPILLTPSPLLSSIHFWSTLSPFAPLSPARLQGANTLFQFPSVLNSHGPFTLSGLDGPSTPGPFSPDLQKT
For B1, the binding [13] was “binds”, the binding [14] was “binds” and the binding [15] was “binds”. For the same molecule, the binding [16] was “binds”.
